# Experimental data: PubChem BioAssay (EPA / NIEHS)
# The chains behind the UniProt entries cited, without tags or fusion partners. Where a name states a change or a piece, a line headed by the entry shows the natural chain unless it says otherwise.
# UniProt Q9Z0U4, whole entry, looked up: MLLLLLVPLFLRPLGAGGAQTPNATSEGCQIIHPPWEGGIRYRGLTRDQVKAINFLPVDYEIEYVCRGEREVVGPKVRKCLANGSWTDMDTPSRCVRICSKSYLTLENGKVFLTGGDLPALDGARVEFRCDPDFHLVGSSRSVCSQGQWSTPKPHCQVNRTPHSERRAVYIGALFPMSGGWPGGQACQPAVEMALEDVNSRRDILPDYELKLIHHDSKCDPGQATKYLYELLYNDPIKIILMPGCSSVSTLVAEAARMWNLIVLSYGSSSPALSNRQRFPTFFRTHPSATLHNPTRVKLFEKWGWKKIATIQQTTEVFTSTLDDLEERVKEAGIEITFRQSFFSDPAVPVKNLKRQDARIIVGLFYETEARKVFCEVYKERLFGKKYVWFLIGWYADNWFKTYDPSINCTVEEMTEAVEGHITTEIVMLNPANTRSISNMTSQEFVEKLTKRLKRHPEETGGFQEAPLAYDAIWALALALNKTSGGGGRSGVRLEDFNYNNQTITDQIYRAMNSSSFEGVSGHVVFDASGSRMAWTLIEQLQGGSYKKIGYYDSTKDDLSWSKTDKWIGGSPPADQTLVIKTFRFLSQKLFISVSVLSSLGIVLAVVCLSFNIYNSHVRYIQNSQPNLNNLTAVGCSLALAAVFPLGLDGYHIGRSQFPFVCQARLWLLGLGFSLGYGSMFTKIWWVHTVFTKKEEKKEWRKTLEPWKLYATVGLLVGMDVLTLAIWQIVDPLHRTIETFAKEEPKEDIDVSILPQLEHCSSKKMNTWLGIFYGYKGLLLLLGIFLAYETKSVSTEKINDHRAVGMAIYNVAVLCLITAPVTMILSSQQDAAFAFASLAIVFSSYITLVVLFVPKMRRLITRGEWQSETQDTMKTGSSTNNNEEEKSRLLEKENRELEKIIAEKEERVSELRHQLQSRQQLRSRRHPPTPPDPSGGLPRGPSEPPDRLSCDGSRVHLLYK
# UniProt P28646: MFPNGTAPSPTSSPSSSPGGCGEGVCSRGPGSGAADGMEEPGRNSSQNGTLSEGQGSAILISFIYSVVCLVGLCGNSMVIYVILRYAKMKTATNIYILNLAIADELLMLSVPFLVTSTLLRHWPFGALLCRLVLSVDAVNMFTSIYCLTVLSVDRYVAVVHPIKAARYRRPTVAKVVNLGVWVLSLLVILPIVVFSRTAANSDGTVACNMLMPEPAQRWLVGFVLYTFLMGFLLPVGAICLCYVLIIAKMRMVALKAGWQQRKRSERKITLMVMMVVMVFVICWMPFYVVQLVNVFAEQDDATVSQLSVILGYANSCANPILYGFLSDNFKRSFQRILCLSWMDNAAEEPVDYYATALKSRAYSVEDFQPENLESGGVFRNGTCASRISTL
# UniProt P37231: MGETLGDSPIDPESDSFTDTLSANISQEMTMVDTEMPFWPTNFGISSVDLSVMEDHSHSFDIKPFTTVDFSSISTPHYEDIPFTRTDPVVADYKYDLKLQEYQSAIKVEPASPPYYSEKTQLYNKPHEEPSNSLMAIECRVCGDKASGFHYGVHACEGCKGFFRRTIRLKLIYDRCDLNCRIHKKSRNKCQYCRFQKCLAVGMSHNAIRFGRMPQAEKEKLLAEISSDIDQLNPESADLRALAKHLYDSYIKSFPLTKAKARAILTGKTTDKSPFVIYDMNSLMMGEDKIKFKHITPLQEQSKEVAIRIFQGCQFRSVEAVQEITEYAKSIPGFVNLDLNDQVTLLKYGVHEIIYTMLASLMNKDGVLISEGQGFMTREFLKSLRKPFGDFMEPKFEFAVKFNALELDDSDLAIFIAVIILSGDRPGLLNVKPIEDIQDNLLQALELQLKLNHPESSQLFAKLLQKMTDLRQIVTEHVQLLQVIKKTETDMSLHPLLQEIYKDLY
# UniProt Q14994: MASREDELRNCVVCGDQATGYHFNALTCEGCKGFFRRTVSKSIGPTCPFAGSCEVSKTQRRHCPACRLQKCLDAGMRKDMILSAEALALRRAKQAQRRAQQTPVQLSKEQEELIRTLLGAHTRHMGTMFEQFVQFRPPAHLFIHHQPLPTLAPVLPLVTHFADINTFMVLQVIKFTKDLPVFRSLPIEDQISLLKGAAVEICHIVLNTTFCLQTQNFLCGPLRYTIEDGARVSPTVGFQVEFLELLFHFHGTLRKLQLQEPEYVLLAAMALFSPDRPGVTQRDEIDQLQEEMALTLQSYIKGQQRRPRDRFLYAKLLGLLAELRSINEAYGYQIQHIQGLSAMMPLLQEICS
# UniProt Q9UNQ0: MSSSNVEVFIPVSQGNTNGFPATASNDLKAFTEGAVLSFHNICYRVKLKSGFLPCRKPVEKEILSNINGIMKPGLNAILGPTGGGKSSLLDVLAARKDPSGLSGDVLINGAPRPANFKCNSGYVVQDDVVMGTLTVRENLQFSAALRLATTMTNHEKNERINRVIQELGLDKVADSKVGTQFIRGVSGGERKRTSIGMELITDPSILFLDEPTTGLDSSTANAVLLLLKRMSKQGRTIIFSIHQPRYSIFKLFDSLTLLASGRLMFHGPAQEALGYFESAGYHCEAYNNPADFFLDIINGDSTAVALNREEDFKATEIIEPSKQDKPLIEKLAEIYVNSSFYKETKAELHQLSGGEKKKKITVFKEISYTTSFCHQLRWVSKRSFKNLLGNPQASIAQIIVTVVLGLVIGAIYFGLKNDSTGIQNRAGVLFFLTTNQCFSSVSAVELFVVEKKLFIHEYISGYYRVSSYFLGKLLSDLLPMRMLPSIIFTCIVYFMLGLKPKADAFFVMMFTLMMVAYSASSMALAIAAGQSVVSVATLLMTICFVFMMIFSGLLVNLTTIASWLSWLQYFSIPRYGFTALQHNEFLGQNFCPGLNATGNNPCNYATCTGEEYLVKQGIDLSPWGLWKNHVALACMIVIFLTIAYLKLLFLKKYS
# UniProt P11712, whole entry, looked up: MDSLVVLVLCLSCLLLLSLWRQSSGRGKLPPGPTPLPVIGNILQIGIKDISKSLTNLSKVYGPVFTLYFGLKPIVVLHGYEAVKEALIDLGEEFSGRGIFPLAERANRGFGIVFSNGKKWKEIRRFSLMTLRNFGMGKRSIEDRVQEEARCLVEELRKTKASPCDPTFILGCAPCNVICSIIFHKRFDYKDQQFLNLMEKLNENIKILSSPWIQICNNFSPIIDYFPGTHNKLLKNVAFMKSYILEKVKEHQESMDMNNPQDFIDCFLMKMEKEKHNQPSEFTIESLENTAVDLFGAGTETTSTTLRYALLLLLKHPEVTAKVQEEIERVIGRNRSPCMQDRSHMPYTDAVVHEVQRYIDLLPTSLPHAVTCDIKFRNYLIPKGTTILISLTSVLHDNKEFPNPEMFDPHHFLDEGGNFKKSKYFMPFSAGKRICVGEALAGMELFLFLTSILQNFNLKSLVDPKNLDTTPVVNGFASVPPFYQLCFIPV
# UniProt P04406: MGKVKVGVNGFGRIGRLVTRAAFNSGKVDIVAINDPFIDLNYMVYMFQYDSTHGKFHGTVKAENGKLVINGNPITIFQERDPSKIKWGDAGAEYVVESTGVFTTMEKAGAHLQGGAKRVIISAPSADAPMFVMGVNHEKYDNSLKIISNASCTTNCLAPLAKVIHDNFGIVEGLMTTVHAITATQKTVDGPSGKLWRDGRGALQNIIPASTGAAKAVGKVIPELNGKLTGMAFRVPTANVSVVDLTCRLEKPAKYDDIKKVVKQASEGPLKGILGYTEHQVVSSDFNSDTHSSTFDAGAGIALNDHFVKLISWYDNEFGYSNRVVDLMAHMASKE
# Values joined by “and” are separate entries in the source; they are usually repeats but may differ in a detail not shown here. Equal values may be shown once. The inconclusive results got no clear call from the source; some entries with a clear call stand among them for comparison. For some of these results: Where the call is inconclusive, the potency comes from a doubtful curve fit. The source holds several records for some structures; these can differ, active in one and inactive in another. Active and inactive are the calls of the source. Rule for the calls: active = hit-call score of the fitted dose curve at least 0.9, where 1 is the maximum; inconclusive = response in the unintended direction; inactive = score below 0.9.
# What was measured:
# [1] = tested on: turtle Estrogen Receptor (ERa), gene 101933533; experiment: ATG_trERa_XSP2: Attagene TRANS-FACTORIAL Multi-Species (XSP2) HepG2 Assay for turtle Estrogen Receptor (ERa) (AID 2283812);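 note: human HepG2 liver cells transiently expressing turtle ERa-Gal4 chimeric receptor; actives raise reporter signal above DMSO so AC50 reflects agonist activity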
# Method in brief: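 HepG2 cells transiently transfected with GAL4-UAS reporter units expressing turtle ERa-Gal4 chimera. Reporter mRNA measured after 24 h dosing by RT-PCR, fluorescent labelling and capillary electrophoresis; gain of signal fitted versus DMSO.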
# [2] = tested on: frog Estrogen Receptor (ER), gene 398734; experiment: ATG_frER1_XSP2: Attagene TRANS-FACTORIAL Multi-Species (XSP2) HepG2 Assay for frog Estrogen Receptor (ER) (AID 2283821);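 note: hits raise reporter mRNA above DMSO baseline so potency means agonist or activator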
# Method in brief: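 HepG2, transient MRTU transfection, chimeric NR-GAL4/UAS reporters; 24 h compound exposure, 24-well. Readout: reporter mRNA via RT-PCR + capillary electrophoresis, fluorescence. Positive fit vs DMSO baseline.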
# [3] = target: Collagenase 3 (Homo sapiens) (UniProt P45452); experiment: NVS_ENZ_hMMP13: NovaScreen (NVS) Enzymatic Assay for human Matrix Metalloproteinase-13 (MMP13) (AID 2283182)
# Method in brief: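 Recombinant MMP13 cleaving fluorescent substrate, cell-free, measured 1 h after dosing. Primary duplicate screen at 25 uM; actives tested in concentration-response up to 50 uM; loss of signal relative to DMSO.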
# [4] = target: rat Gamma-Aminobutyric Acid Type B Receptor (GABBR), Gabbr1 (gene 81657) (UniProt Q9Z0U4); experiment: NVS_GPCR_rGABBR: NovaScreen (NVS) G Protein-Coupled Receptor Assay for rat Gamma-Aminobutyric Acid Type B Receptor (GABBR) (AID 2283301)
# Method in brief: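 Radioligand displacement on rat cortical membranes, 1 h, filter-based scintillation counting. Primary screen at 25 uM in duplicate; compounds passing threshold re-tested in concentration-response up to 50 uM; loss of binding fitted against DMSO.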
# [5] = target: rat Somatostatin Receptor (SST), Sstr1 (gene 25033) (UniProt P28646); experiment: NVS_GPCR_rSST: NovaScreen (NVS) G Protein-Coupled Receptor Assay for rat Somatostatin Receptor (SST) (AID 2283314)
# Method in brief: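 Rat forebrain membranes; radioligand displacement read by filter-based scintillation counting 1 h after dosing. Primary screen in duplicate at 25 uM. Actives (e.g., 30% inhibition) were rerun as concentration-response to 50 uM max and fitted against DMSO.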
# [6] = target: Peroxisome proliferator-activated receptor gamma (Homo sapiens) (UniProt P37231); experiment: OT_PPARg_PPARgSRC1_1440: Odyssey Thera (OT) 24-hour Protein-Complementation Assay for Peroxisome Proliferator-activated Receptor Gamma/ SRC-1 Co-activator (AID 2283388);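 note: nuclear to cytoplasmic ratio of reconstituted Venus YFP fluorescence in fixed imaged cells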
# Method in brief: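 Readout: nuclear-to-cytoplasmic 488 nm fluorescence ratio, ≥350 cells per image, 8 images per well, after 24 h compound exposure of HEK293T expressing PPARg/SRC-1 split-YFP fusions. Activity fitted in positive direction against DMSO.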
# NCBI gene 100848466 = experiment: NVS_NR_bPR: NovaScreen (NVS) Nuclear Receptor Binding Assay for bovine Progextron Receptor (PR) (AID 2283343);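 note: actives lower bound radioligand signal below DMSO meaning displacement of the label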
# Method in brief: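 Bovine uterine membrane preparation, cell-free; radioligand competitive displacement measured by scintillation counting 18 hours after dosing. Loss of signal versus DMSO baseline indicates binding; primary HTS single concentration 25 uM in duplicate, actives followed in concentration series.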
# [7] = target: human Constitutive Androstane Receptor (CAR), NR1I3 (gene 9970) (UniProt Q14994); experiment: NVS_NR_hCAR_Antagonist: NovaScreen (NVS) Nuclear Receptor Binding Assay for human Constitutive Androstane Receptor Antagonism (CAR) (AID 2283344)
# Method in brief: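 Cell-free TR-FRET binding read 1 h after dosing, antagonist mode; loss of signal versus DMSO baseline. Primary screen in duplicate at a single 25 uM; actives retested in concentration series.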
# [8] = read-out: Broad substrate specificity ATP-binding cassette transporter ABCG2 (Homo sapiens) (UniProt Q9UNQ0); experiment: CLD_ABCG2_6hr: CellzDirect (CLD) Gene Expression Assay for ABC Transporter (ABCG2) at 6 hours (AID 2283660)
# Method in brief: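 Primary human hepatocytes dosed daily with chemicals at multiple concentrations (0.2% DMSO vehicle), harvested 6 h after dosing. ABCG2 mRNA induction read by quantitative nuclease protection assay (qNPA) chemiluminescence; gain of signal fitted against DMSO baseline.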
# [9] = read-out: xenobiotic metabolism (CYP1A1), CYP1A1 (gene 1543); experiment: CLD_CYP1A1_24hr: CellzDirect (CLD) Gene Expression Assay for xenobiotic metabolism (CYP1A1) at 24 hours (AID 2283673);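 note: CYP1A1 mRNA level by quantitative nuclease protection with chemiluminescence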
# Method in brief: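 Primary human hepatocytes dosed daily with fresh solutions in 0.2% DMSO vehicle. mRNA measured at 24 h by quantitative nuclease protection assay with chemiluminescence; gain-of-signal fit versus DMSO, with morphology-based cytotoxicity flags.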
# [10] = read-out: Cytochrome P450 2C9 (Homo sapiens) (UniProt P11712); experiment: CLD_CYP2C9_24hr: CellzDirect (CLD) Gene Expression Assay for xenobiotic metabolism (CYP2C9) at 24 hours (AID 2283688)
# Method in brief: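 Primary human hepatocytes from two donor preparations, dosed daily for two days at multiple concentrations; vehicle 0.2% DMSO. CYP2C9 mRNA induction at 24 h measured by qNPA chemiluminescence relative to DMSO; cytotoxicity annotated from morphology.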
# [11] = read-out: Glyceraldehyde-3-phosphate dehydrogenase (Homo sapiens) (UniProt P04406); experiment: CLD_GAPDH_48hr: CellzDirect (CLD) Gene Expression Assay for Baseline Control (Glyceraldehyde 3-phosphate dehydrogenase) at 48 hours (AID 2283706);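 note: active means higher GAPDH mRNA than DMSO vehicle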
# Method in brief: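 Primary human hepatocytes dosed daily for two days with fresh chemical at multiple concentrations, 0.2% DMSO vehicle; GAPDH mRNA measured at 48 h by quantitative nuclease protection assay with chemiluminescence, fitted upward relative to DMSO as background control.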
# [12] = tested on: SRY-box transcription factor 2 (SOX2) Protein Expression, Deisenroth Lab, SOX2 (gene 6657); experiment: CCTE_Deisenroth_DEVTOX-GLR_Endo_SOX2: CCTE's DevTox GLR-Endo Assay Evaluation of SRY-box transcription factor 2 (SOX2) Protein Expression, Deisenroth Lab (AID 2284412)
# Method in brief: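 RUES2-GLR human pluripotent cells were seeded 24 h, then differentiated 48 h with two chemical exposures 24 h apart. Cells were fixed, nuclei stained and imaged by high-content microscopy. Endpoint is %SOX2+ cells over cell count, minus 0.2% DMSO control; 10-point series 1 nM–200 uM.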
compound,measurement,setting,value
Oc1ccc2cc(SSc3ccc4cc(O)ccc4c3)ccc2c1,outcome,[1],inactive
same,AC50,[2],inconclusive: 100000 nM
CCc1cc(SCc2sc(-c3ccc(C(F)(F)F)cc3)nc2CN2CCN(c3ccc(OC)cc3)CC2)ccc1OCC(=O)O,AC50,[3],active: 5850 nM
same,outcome,[4],inactive
same,outcome,[5],inactive
same,AC50,[6],active: 723 nM and active: 1.02 µM
CCCCC(CC)COC(=O)c1ccccc1C(=O)O (stereo not drawn),AC50,NCBI gene 100848466,inconclusive: 567 nM
same,outcome,[7],inactive
same,outcome,[8],inactive
same,AC50,[9],inconclusive: 1880 nM
same,outcome,[10],inactive
same,outcome,[11],inactive
same,AC50,[12],inconclusive: 0.000765 nM

# An excerpt of these results, tab-delimited.
compound	measurement	setting	value
CCCCC(CC)COC(=O)c1ccccc1C(=O)O (stereo not drawn)	outcome	[7]	inactive
same	outcome	[8]	inactive
